Data source: PubChem BioAssay AID1259331 (Drosophila RNAi Screening Center, 2017)
This is one part, drawn at random, of about 3,100 reagents tested. 126 of all reagents (4.1%) were called active. 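Calls are per reagent; zinc was so toxic that few knock-downs lowered ATP further, so most hits raise ATP.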 The raw values are shown without normalisation. Unmarked entries are inactive. Reagents against one gene are numbered here. A plus sign joins genes that one reagent is predicted to hit. Reagent sequences are not shown. The record does not give: the amount of reagent.

Aim: 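Genes whose knock-down changes cell survival under toxic zinc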 (primary screen)
System: Drosophila S2R+ cells
Reagent: long dsRNA against Drosophila genes
Duration: 5 days (4 days knock-down, then 1 day zinc)
Challenge: zinc chloride at 15 mM final level for 1 day
Measured: 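Total cellular ATP measured by luciferase luminescence as a viability proxy, turned into Z scores from three plate copies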
Reading the numbers: mean Z score: higher = more ATP than other wells, better survival under zinc; ATP luminescence: higher = more ATP, more viable cells
Call rule: 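a reagent is called a hit when its Z score is above 1.5 or below -1.5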
Meaning of the calls: active = hit, ATP up or down; inactive = not a hit

With knock-down of Ten-m (Tenascin major) #1, the record shows mean Z score 0.315; ATP luminescence, replicate 1 = 45423; ATP luminescence, replicate 2 = 47429.
Against Ten-m (Tenascin major) #2, the entry reads mean Z score 0.0443; ATP luminescence, replicate 1 = 78949; ATP luminescence, replicate 2 = 59706.
Zip48C (Zinc/iron regulated transporter-related protein 48C) #1 gave mean Z score -0.827; ATP luminescence, replicate 1 = 25881; ATP luminescence, replicate 2 = 24998.
After knock-down of Zip48C (Zinc/iron regulated transporter-related protein 48C) #2, the record shows mean Z score -0.357; ATP luminescence, replicate 1 = 56928; ATP luminescence, replicate 2 = 49418.
For aph-1 (anterior pharynx defective 1) #1, the values are mean Z score 0.0758; ATP luminescence, replicate 1 = 54047; ATP luminescence, replicate 2 = 60735.
aph-1 (anterior pharynx defective 1) #2 scored mean Z score 0.269; ATP luminescence, replicate 1 = 64919; ATP luminescence, replicate 2 = 63547.
After knock-down of CG31600 #1 the results were mean Z score -0.0289; ATP luminescence, replicate 1 = 48303; ATP luminescence, replicate 2 = 47480.
For CG31600 #2 the deposit lists mean Z score 0.0527; ATP luminescence, replicate 1 = 57511; ATP luminescence, replicate 2 = 56379.

4 entries from above in another layout.
Ten-m (Tenascin major) #1
- mean Z score: 0.315
- ATP luminescence, replicate 1: 45423
- ATP luminescence, replicate 2: 47429

Ten-m (Tenascin major) #2
- mean Z score: 0.0443
- ATP luminescence, replicate 1: 78949
- ATP luminescence, replicate 2: 59706

Zip48C (Zinc/iron regulated transporter-related protein 48C) #1
- mean Z score: -0.827
- ATP luminescence, replicate 1: 25881
- ATP luminescence, replicate 2: 24998

Zip48C (Zinc/iron regulated transporter-related protein 48C) #2
- mean Z score: -0.357
- ATP luminescence, replicate 1: 56928
- ATP luminescence, replicate 2: 49418

Further records follow:
For CG30339, the values are mean Z score 0.0809; ATP luminescence, replicate 1 = 43638; ATP luminescence, replicate 2 = 46074.
Silencing of CG4822 resulted in: mean Z score 0.107; ATP luminescence, replicate 1 = 51132; ATP luminescence, replicate 2 = 64731.
Silencing of Gr59e (Gustatory receptor 59e) #1 gave: mean Z score 0.269; ATP luminescence, replicate 1 = 54819; ATP luminescence, replicate 2 = 40708.
Depletion of Gr59e (Gustatory receptor 59e) #2 came out at: mean Z score 0.923; ATP luminescence, replicate 1 = 74386; ATP luminescence, replicate 2 = 75675.
For Desat1 (Desaturase 1), the values are mean Z score 0.143; ATP luminescence, replicate 1 = 52624; ATP luminescence, replicate 2 = 58471.
With knock-down of Gle1 (Gle1 RNA export mediator) #1, the screen gave mean Z score 0.135; ATP luminescence, replicate 1 = 30383; ATP luminescence, replicate 2 = 34159.
Gle1 (Gle1 RNA export mediator) #2 scored mean Z score 0.772; ATP luminescence, replicate 1 = 59157; ATP luminescence, replicate 2 = 57185.
Against asRNA:CR30267 + CG42260 the deposit lists mean Z score 0.26; ATP luminescence, replicate 1 = 63444; ATP luminescence, replicate 2 = 67406.
Silencing of CG32795 #1 resulted in: mean Z score -0.171; ATP luminescence, replicate 1 = 38273; ATP luminescence, replicate 2 = 42028.
CG32795 #2 scored mean Z score 0.21; ATP luminescence, replicate 1 = 40963; ATP luminescence, replicate 2 = 54219.
Silencing of CG4630 #1 resulted in: mean Z score -0.585; ATP luminescence, replicate 1 = 28073; ATP luminescence, replicate 2 = 28827.
Knock-down of CG4630 #2 came out at: mean Z score 0.321; ATP luminescence, replicate 1 = 65588; ATP luminescence, replicate 2 = 66257.
Tl (Toll) #1 gave mean Z score -0.525; ATP luminescence, replicate 1 = 38033; ATP luminescence, replicate 2 = 40839.
Tl (Toll) #2 scored mean Z score 1.02; ATP luminescence, replicate 1 = 69224; ATP luminescence, replicate 2 = 60358.
Silencing of CG16700 #1 resulted in: mean Z score -0.295; ATP luminescence, replicate 1 = 42645; ATP luminescence, replicate 2 = 37188.
CG16700 #2 gave mean Z score -0.683; ATP luminescence, replicate 1 = 49092; ATP luminescence, replicate 2 = 48166.
